Results published in patent US20200289476A1 (University of Houston System, priority 2017, published 2020).
≈ marks a conversion by molar mass, not a printed value. Read-outs that look alike come from different tables or passages of the source.

Experiments:
[1] = rats, product monograph, cited from earlier work
physchem = conditions: pH 7, water

For `Nc1nc2ccc(OC(F)(F)F)cc2s1` [Riluzole, 6-trifluoromethoxy-2-benzothiazolamine], which LD50 ([1]; intravenous) is on record?
Its LD50 is 21 mg/kg.

What about the LD50 ([1]; oral) of the same molecule?
The LD50 was 45 mg/kg.

What about the solubility (physchem) of the same molecule?
The solubility was 300 µg/mL (≈ 1280 µM).
